Data: PMC8298264, “Function of cofactor Akirin2 in the regulation of gene expression in model human neutrophil-like HL60 cells” (Bioscience Reports, 2021)

The molecules below were run on human HL60 cells (assay: SWATH-MS proteomics, differential protein representation, akirin2 KO vs WT HL60 cells). Details: akirin2 KO vs WT HL60 cells, SWATH-MS; sheet "Under-represented in KO".
Assay type: cell-based
Method: Total proteins were extracted from WT and akirin2 KO HL60 cells using the AllPrep DNA/RNA/Protein Mini Kit (Qiagen) and protein concentration was determined using the BCA Protein Assay with BSA (Sigma–Aldrich) as standard. Protein extracts (150 µg per sample, n=3 biological replicates) from each WT and KO cells were trypsin digested using the FASP Protein Digestion Kit (Expedeon Ltd., Abcam, Cambridge, U.K.) and sequencing grade trypsin (Promega, Madison, WI, U.S.A.) following manufacturer’s recommendations. The resulting peptides were finally desalted on to OMIX Pipette tips C18 (Agilent Technologies, Santa Clara, CA, U.S.A.), dried down and stored at −20 °C until mass spectrometry analysis. […] Three micrograms of each protein digest from the three biological replicates of WT and akirin2 KO HL60 cells were used for the generation of the reference spectral ion library as part of the SWATH-MS analysis.
Peptides were eluted in a 120-min gradient from 5 to 30% solvent B in solvent A followed by 15-min gradient from 30 to 60% solvent B in solvent A (solvent A: 0.1% formic acid in water, solvent B: 0.1% formic acid in acetonitrile) and directly injected into the mass spectrometer for analysis. For IDA experiments, the mass spectrometer was set to scanning full spectra (350–1400 m/z) using 250 ms accumulation time per spectrum, followed by up to 50 MS/MS scans (100–1500 m/z). Candidate ions with a charge state between +2 and +5 counts per second above a minimum threshold of 100 were isolated for fragmentation. One MS/MS spectrum was collected for 100 ms, before adding those precursor ions to the exclusion list for 15 s (mass spectrometer operated by Analyst TF 1.6, AB Sciex). Dynamic background subtraction was turned off. MS/MS analyses were recorded in high-sensitivity mode with rolling collision energy on and a collision energy spread of 5. For SWATH quantitative analysis, six independent samples (three replicates from WT and akirin2 KO HL60 cells, 5 µg each) were subjected to the cyclic DIA of mass spectra using the SWATH variable windows calculator (V 1.0, AB Sciex) and the SWATH acquisition method editor (AB Sciex), similar to established methods. […] For these experiments, a 50-ms survey scan (350–1400 m/z) was acquired at the beginning of each cycle, and SWATH–MS/MS spectra were collected from 100–1500 m/z for 70 ms at high-sensitivity mode, resulting in a cycle time of 3.6 s. Collision energy for each window was determined according to the calculation for a charge +2 ion-centered upon the window with a collision energy spread of 15. To create a spectral library of all the detectable peptides in the samples, the IDA MS raw files were combined and subjected to database search in unison using ProteinPilot software v. 5.0.1 (AB Sciex) with the Paragon algorithm. […] The detected protein threshold was set at 0.05. An independent false discovery rate (FDR) analysis, using the target–decoy approach provided by Protein Pilot (AB Sciex; https://sciex.com/products/software/proteinpilot-software), was used to assess the quality of identifications. Positive identifications were considered when identified proteins reached 1% of global FDR. […] Global normalization was performed according to the Total Area Sums (TAS) of all detected proteins in the samples. […] Heatmaps were prepared using the Heatmapper (http://www.heatmapper.ca/expression/) with average linkage and Euclidean distance measurement method.

Molecule	Fold Change	Log (Fold Change)
sp¦P17174¦AATC_HUMAN (protein, UniProt P17174 2-413, looked up) Aspartate aminotransferase, …: APPSVFAEVPQAQPVLVFKLTADFREDPDPRKVNLGVGAYRTDDCHPWVLPVVKKVEQKIANDNSLNHEYLPILGLAEFRSCASRLALGDDSPALKEKRVGGVQSLGGTGALRIGADFLARWYNGTNNKNTPVYVSSPTWENHNAVFSAAGFKDIRSYRYWDAEKRGLDLQGFLNDLENAPEFSIVVLHACAHNPTGIDPTPEQWKQIASVMKHRFLFPFFDSAYQGFASGNLERDAWAIRYFVSEGFEFFCAQSFSKNFGLYNERVGNLTVVGKEPESILQVLSQMEKIVRITWSNPPAQGARIVASTLSNPELFEEWTGNVKTMADRILTMRSELRARLEALKTPGTWNHITDQIGMFSFTGLNPKQVEYLVNEKHIYLLPSGRINVSGLTTKNLDYVATSIHEAVTKIQ	0.8155	-0.08859
sp¦P14868¦SYDC_HUMAN (protein, UniProt P14868 1-501, looked up) Aspartate--tRNA ligase, …: MPSASASRKSQEKPREIMDAAEDYAKERYGISSMIQSQEKPDRVLVRVRDLTIQKADEVVWVRARVHTSRAKGKQCFLVLRQQQFNVQALVAVGDHASKQMVKFAANINKESIVDVEGVVRKVNQKIGSCTQQDVELHVQKIYVISLAEPRLPLQLDDAVRPEAEGEEEGRATVNQDTRLDNRVIDLRTSTSQAVFRLQSGICHLFRETLINKGFVEIQTPKIISAASEGGANVFTVSYFKNNAYLAQSPQLYKQMCICADFEKVFSIGPVFRAEDSNTHRHLTEFVGLDIEMAFNYHYHEVMEEIADTMVQIFKGLQERFQTEIQTVNKQFPCEPFKFLEPTLRLEYCEALAMLREAGVEMGDEDDLSTPNEKLLGHLVKEKYDTDFYILDKYPLAVRPFYTMPDPRNPKQSNSYDMFMRGEEILSGAQRIHDPQLLTERALHHGIDLEKIKAYIDSFRFGAPPHAGGGIGLERVTMLFLGLHNVRQTSMFPRDPKRLTP	0.8089	-0.09212
sp¦P41240¦CSK_HUMAN (protein, UniProt P41240 2-450, looked up) Tyrosine-protein kinase CSK: SAIQAAWPSGTECIAKYNFHGTAEQDLPFCKGDVLTIVAVTKDPNWYKAKNKVGREGIIPANYVQKREGVKAGTKLSLMPWFHGKITREQAERLLYPPETGLFLVRESTNYPGDYTLCVSCDGKVEHYRIMYHASKLSIDEEVYFENLMQLVEHYTSDADGLCTRLIKPKVMEGTVAAQDEFYRSGWALNMKELKLLQTIGKGEFGDVMLGDYRGNKVAVKCIKNDATAQAFLAEASVMTQLRHSNLVQLLGVIVEEKGGLYIVTEYMAKGSLVDYLRSRGRSVLGGDCLLKFSLDVCEAMEYLEGNNFVHRDLAARNVLVSEDNVAKVSDFGLTKEASSTQDTGKLPVKWTAPEALREKKFSTKSDVWSFGILLWEIYSFGRVPYPRIPLKDVVPRVEKGYKMDAPDGCPPAVYEVMKNCWHLDAAMRPSFLQLREQLEHIKTHELHL	0.8017	-0.096
sp¦P46109¦CRKL_HUMAN (protein, UniProt P46109 1-303, looked up) Crk-like protein: MSSARFDSSDRSAWYMGPVSRQEAQTRLQGQRHGMFLVRDSSTCPGDYVLSVSENSRVSHYIINSLPNRRFKIGDQEFDHLPALLEFYKIHYLDTTTLIEPAPRYPSPPMGSVSAPNLPTAEDNLEYVRTLYDFPGNDAEDLPFKKGEILVIIEKPEEQWWSARNKDGRVGMIPVPYVEKLVRSSPHGKHGNRNSNSYGIPEPAHAYAQPQTTTPLPAVSGSPGAAITPLPSTQNGPVFAKAIQKRVPCAYDKTALALEVGDIVKVTRMNINGQWEGEVNGRKGLFPFTHVKIFDPQNPDENE	0.8005	-0.09661
sp¦P53396¦ACLY_HUMAN (protein, UniProt P53396 1-1101, looked up) ATP-citrate synthase: MSAKAISEQTGKELLYKFICTTSAIQNRFKYARVTPDTDWARLLQDHPWLLSQNLVVKPDQLIKRRGKLGLVGVNLTLDGVKSWLKPRLGQEATVGKATGFLKNFLIEPFVPHSQAEEFYVCIYATREGDYVLFHHEGGVDVGDVDAKAQKLLVGVDEKLNPEDIKKHLLVHAPEDKKEILASFISGLFNFYEDLYFTYLEINPLVVTKDGVYVLDLAAKVDATADYICKVKWGDIEFPPPFGREAYPEEAYIADLDAKSGASLKLTLLNPKGRIWTMVAGGGASVVYSDTICDLGGVNELANYGEYSGAPSEQQTYDYAKTILSLMTREKHPDGKILIIGGSIANFTNVAATFKGIVRAIRDYQGPLKEHEVTIFVRRGGPNYQEGLRVMGEVGKTTGIPIHVFGTETHMTAIVGMALGHRPIPNQPPTAAHTANFLLNASGSTSTPAPSRTASFSESRADEVAPAKKAKPAMPQDSVPSPRSLQGKSTTLFSRHTKAIVWGMQTRAVQGMLDFDYVCSRDEPSVAAMVYPFTGDHKQKFYWGHKEILIPVFKNMADAMRKHPEVDVLINFASLRSAYDSTMETMNYAQIRTIAIIAEGIPEALTRKLIKKADQKGVTIIGPATVGGIKPGCFKIGNTGGMLDNILASKLYRPGSVAYVSRSGGMSNELNNIISRTTDGVYEGVAIGGDRYPGSTFMDHVLRYQDTPGVKMIVVLGEIGGTEEYKICRGIKEGRLTKPIVCWCIGTCATMFSSEVQFGHAGACANQASETAVAKNQALKEAGVFVPRSFDELGEIIQSVYEDLVANGVIVPAQEVPPPTVPMDYSWARELGLIRKPASFMTSICDERGQELIYAGMPITEVFKEEMGIGGVLGLLWFQKRLPKYSCQFIEMCLMVTADHGPAVSGAHNTIICARAGKDLVSSLTSGLLTIGDRFGGALDAAAKMFSKAFDSGIIPMEFVNKMKKEGKLIMGIGHRVKSINNPDMRVQILKDYVRQHFPATPLLDYALEVEKITTSKKPNLILNVDGLIGVAFVDMLRNCGSFTREEADEYIDIGALNGIFVLGRSMGFIGHYLDQKRLKQGLYRHPWDDISYVLPEHMSM	0.7979	-0.09806
sp¦Q99714¦HCD2_HUMAN (protein, UniProt Q99714 2-261, looked up) 3-hydroxyacyl-CoA …: AAACRSVKGLVAVITGGASGLGLATAERLVGQGASAVLLDLPNSGGEAQAKKLGNNCVFAPADVTSEKDVQTALALAKGKFGRVDVAVNCAGIAVASKTYNLKKGQTHTLEDFQRVLDVNLMGTFNVIRLVAGEMGQNEPDQGGQRGVIINTASVAAFEGQVGQAAYSASKGGIVGMTLPIARDLAPIGIRVMTIAPGLFGTPLLTSLPEKVCNFLASQVPFPSRLGDPAEYAHLVQAIIENPFLNGEVIRLDGAIRMQP	0.7961	-0.09905
sp¦Q16891¦MIC60_HUMAN (protein, UniProt Q16891 34-758, looked up) MICOS complex subunit MIC60: STSGSSGLTTGKIAGAGLLFVGGGIGGTILYAKWDSHFRESVEKTIPYSDKLFEMVLGPAAYNVPLPKKSIQSGPLKISSVSEVMKESKQPASQLQKQKGDTPASATAPTEAAQIISAAGDTLSVPAPAVQPEESLKTDHPEIGEGKPTPALSEEASSSSIRERPPEEVAARLAQQEKQEQVKIESLAKSLEDALRQTASVTLQAIAAQNAAVQAVNAHSNILKAAMDNSEIAGEKKSAQWRTVEGALKERRKAVDEAADALLKAKEELEKMKSVIENAKKKEVAGAKPHITAAEGKLHNMIVDLDNVVKKVQAAQSEAKVVSQYHELVVQARDDFKRELDSITPEVLPGWKGMSVSDLADKLSTDDLNSLIAHAHRRIDQLNRELAEQKATEKQHITLALEKQKLEEKRAFDSAVAKALEHHRSEIQAEQDRKIEEVRDAMENEMRTQLRRQAAAHTDHLRDVLRVQEQELKSEFEQNLSEKLSEQELQFRRLSQEQVDNFTLDINTAYARLRGIEQAVQSHAVAEEEARKAHQLWLSVEALKYSMKTSSAETPTIPLGSAVEAIKANCSDNEFTQALTAAIPPESLTRGVYSEETLRARFYAVQKLARRVAMIDETRNSLYQYFLSYLQSLLLFPPQQLKPPPELCPEDINTFKLLSYASYCIEHGDLELAAKFVNQLKGESRRVAQDWLKEARMTLETKQIVEILTAYASAVGIGTTQVQPE	0.797	-0.09852
sp¦Q96C01¦F136A_HUMAN (protein, UniProt Q96C01 2-138, looked up) Protein FAM136A: AELQQLRVQEAVESMVKSLERENIRKMQGLMFRCSASCCEDSQASMKQVHQCIERCHVPLAQAQALVTSELEKFQDRLARCTMHCNDKAKDSIDAGSKELQVKQQLDSCVTKCVDDHMHLIPTMTKKMKEALLSIGK	0.8101	-0.09148

Same assay, conditions: sheet "Over-represented in KO"; KO vs WT

Molecule	Fold Change	Log (Fold Change)
sp¦O75940¦SPF30_HUMAN (protein, UniProt O75940 1-238, looked up) Survival of motor …: MSEDLAKQLASYKAQLQQVEAALSGNGENEDLLKLKKDLQEVIELTKDLLSTQPSETLASSDSFASTQPTHSWKVGDKCMAVWSEDGQCYEAEIEEIDEENGTAAITFAGYGNAEVTPLLNLKPVEEGRKAKEDSGNKPMSKKEMIAQQREYKKKKALKKAQRIKELEQEREDQKVKWQQFNNRAYSKNKKGQVKRSIFASPESVTGKVGVGTCGIADKPMTQYQDTSKYNVRHLMPQ	1.083	0.03446
